Measurements reported in PMC11984844.
No constants are given. Whether binding was seen depends on the method and setting. Binding seen in cells or lysates may run through a third protein. A yes stands for co-enrichment or nearness to the bait. Other partners may have been found. Where a sequence is shown, tags or fusion partners need not be part of it.

Sequences of proteins named here, by UniProt entry; tags and fusion partners are left off.
UniProt O14965: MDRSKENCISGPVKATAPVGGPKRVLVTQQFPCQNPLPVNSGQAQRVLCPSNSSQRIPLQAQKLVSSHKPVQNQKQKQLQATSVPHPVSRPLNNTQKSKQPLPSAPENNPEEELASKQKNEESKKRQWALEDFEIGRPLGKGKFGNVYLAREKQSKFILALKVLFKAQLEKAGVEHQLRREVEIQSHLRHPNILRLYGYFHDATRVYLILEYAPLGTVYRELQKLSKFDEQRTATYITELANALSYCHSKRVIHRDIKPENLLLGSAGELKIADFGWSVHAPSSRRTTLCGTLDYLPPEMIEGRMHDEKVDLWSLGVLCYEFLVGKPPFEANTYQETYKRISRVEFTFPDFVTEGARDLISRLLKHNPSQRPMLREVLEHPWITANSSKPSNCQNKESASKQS

T1: Flag-tagged eEF2K, bait of the immunoprecipitation-mass spectrometry (human) (UniProt O00418)
T1 sequence: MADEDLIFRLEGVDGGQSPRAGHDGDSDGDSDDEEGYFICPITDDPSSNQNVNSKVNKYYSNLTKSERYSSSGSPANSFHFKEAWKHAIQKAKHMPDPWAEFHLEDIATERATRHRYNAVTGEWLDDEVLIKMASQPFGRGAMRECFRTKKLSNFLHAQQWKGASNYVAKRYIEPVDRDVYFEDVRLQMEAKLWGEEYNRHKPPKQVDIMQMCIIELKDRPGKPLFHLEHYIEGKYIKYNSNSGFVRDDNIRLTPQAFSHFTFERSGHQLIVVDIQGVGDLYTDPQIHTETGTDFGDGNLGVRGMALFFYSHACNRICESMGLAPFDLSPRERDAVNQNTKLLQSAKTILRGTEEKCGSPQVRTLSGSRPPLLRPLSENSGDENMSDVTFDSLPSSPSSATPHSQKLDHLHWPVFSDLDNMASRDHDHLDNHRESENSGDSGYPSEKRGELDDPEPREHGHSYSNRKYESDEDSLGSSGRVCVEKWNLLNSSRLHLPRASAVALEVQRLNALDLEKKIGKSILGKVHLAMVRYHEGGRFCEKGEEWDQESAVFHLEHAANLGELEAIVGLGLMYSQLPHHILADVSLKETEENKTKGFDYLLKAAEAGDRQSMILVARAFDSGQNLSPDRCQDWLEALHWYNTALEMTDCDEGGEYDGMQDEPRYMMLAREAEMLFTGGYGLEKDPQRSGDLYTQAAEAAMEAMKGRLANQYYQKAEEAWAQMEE

B1: Homer1 (protein, UniProt Q86YM7 1-354)
chain: MGEQPIFSTRAHVFQIDPNTKKNWVPTSKHAVTVSYFYDSTRNVYRIISLDGSKAIINSTITPNMTFTKTSQKFGQWADSRANTVYGLGFSSEHHLSKFAEKFQEFKEAARLAKEKSQEKMELTSTPSQESAGGDLQSPLTPESINGTDDERTPDVTQNSEPRAEPTQNALPFSHSSAISKHWEAELATLKGNNAKLTAALLESTANVKQWKQQLAAYQEEAERLHKRVTELECVSSQANAVHTHKTELNQTIQELEETLKLKEEEIERLKQEIDNARELQEQRDSLTQKLQEVEIRNKDLEGQLSDLEQRLEKSQNEQEAFRNNLKTLLEILDGKIFELTELRDNLAKLLECS

Target: T1, Flag-tagged eEF2K, bait of the immunoprecipitation-mass spectrometry (human)
Test: affinity purification with mass spectrometry; Immunoprecipitation-Mass Spectrometry with anti-Flag antibodies; cells not told in the text shown

Molecule | binding
AURKA found in the immunoprecipitation-mass spectrometry (from UniProt O14965 1-403) (enzyme) | binds
B1 | binds
